PubChem BioAssay AID504774, Drosophila RNAi Screening Center, 2011
The screen tested about 23,000 reagents; below is an unselected part of those with a known target gene and a result. 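Values are quantile-normalised luminescence on an arbitrary scale; higher means more cells surviving MMS.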 A plus sign joins genes that one reagent is predicted to hit. Further read-outs or replicates are left out here.

Screen: 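Genes required for cells to withstand methyl methanesulphonate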 (primary screen)
System: Drosophila Kc167 cells
Knock-down reagent: long dsRNA against Drosophila genes, about 0.25 µg dsRNA per well
Timing: about 6 days: 3 days knock-down, then 3 days with or without MMS
Conditions: methyl methanesulphonate 0.004% (w/v) for 3 days after knock-down
Measured: 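Viability in wells given MMS, read as ATP luminescence, normalised by quantiles plate by plate and averaged across replicates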
Scale: mean viability with MMS: higher = more surviving cells after MMS

After knock-down of bft (retired record) [DRSC21354], the record shows mean viability with MMS 3.73e6. After knock-down of CG15373 [DRSC19663], the screen gave mean viability with MMS 3.64e6. Against CG18278 + CG30059 [DRSC05418], the entry reads mean viability with MMS 3.67e6. With knock-down of CG34367 [DRSC02238], the record shows mean viability with MMS 3.55e6. CG34367 [DRSC02850] scored mean viability with MMS 3.71e6. CG12692 [DRSC17881] scored mean viability with MMS 3.53e6.

With knock-down of Phs (Phaser) [DRSC10827] the results were mean viability with MMS 3.58e6. With knock-down of CG3698 [DRSC11749], the screen gave mean viability with MMS 3.58e6. Knock-down of PIG-A (Phosphatidylinositol glycan anchor biosynthesis class A) [DRSC06982] came out at: mean viability with MMS 3.56e6. With knock-down of Spn42Dd (Serpin 42Dd) [DRSC05024] the results were mean viability with MMS 3.53e6. Spn42Dd (Serpin 42Dd) [DRSC22060] showed mean viability with MMS 3.69e6. Knock-down of phol (pleiohomeotic like) [DRSC10367] resulted in: mean viability with MMS 3.40e6.

Knock-down of CG6602 [DRSC10673] came out at: mean viability with MMS 3.55e6. Depletion of robo1 (roundabout 1) [DRSC04712] gave: mean viability with MMS 3.74e6. For CG34008 [DRSC13428], the entry reads mean viability with MMS 3.57e6. With knock-down of CG15711 [DRSC06582], the record shows mean viability with MMS 3.47e6. For LManIII (Lysosomal alpha-mannosidase III) [DRSC03221], the entry reads mean viability with MMS 3.39e6. With knock-down of rnh1 (ribonuclease H1) [DRSC07673], the record shows mean viability with MMS 3.48e6.

Depletion of CG6184 [DRSC15986] came out at: mean viability with MMS 3.43e6. With knock-down of CAP [DRSC05215], the record shows mean viability with MMS 3.57e6. Knock-down of CAP [DRSC06743] came out at: mean viability with MMS 3.57e6. CAP [DRSC06744] gave mean viability with MMS 3.48e6. Against CAP [DRSC06745] the deposit lists mean viability with MMS 3.70e6. Against CAP [DRSC06846], the entry reads mean viability with MMS 3.55e6.

No new results follow: entries from further up.
CG6602 [DRSC10673]: mean viability with MMS = 3.55e6
robo1 (roundabout 1) [DRSC04712]: mean viability with MMS = 3.74e6
